This is an account of results in patent US20120045395.

By UniProt entry, the sequences of proteins in these tests, tags left out. Residues count along the entry.
UniProt P84022, 2-425: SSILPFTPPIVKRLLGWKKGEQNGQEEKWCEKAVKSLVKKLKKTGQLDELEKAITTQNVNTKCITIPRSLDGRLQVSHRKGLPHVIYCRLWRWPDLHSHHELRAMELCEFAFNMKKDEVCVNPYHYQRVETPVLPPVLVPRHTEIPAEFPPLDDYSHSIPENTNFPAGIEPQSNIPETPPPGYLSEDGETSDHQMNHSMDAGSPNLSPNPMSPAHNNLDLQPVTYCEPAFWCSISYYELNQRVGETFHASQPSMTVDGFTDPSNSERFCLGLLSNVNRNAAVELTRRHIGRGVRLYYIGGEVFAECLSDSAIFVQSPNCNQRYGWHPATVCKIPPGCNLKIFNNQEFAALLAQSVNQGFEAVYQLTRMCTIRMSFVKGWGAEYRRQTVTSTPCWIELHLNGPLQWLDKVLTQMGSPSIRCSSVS

Results from cells or extracts need not show a direct contact.

This data set deals with SMAD3 (A549 nuclear extract, TGF-beta treated) (Homo sapiens) (UniProt P84022). The data set is described as follows: EMSA. The settings on record: supershift with SMAD3 antibody, not with peroxiredoxin 6 antibody; competed by unlabeled DNA; protein in an extract; label: 5'-Cy5.

Regarding “GATAATTAAATGTTAAAAGTCAGC (double strand) [let-7d promoter EMSA probe]”, the binding result is “binds”.
